Assay results as given in patent US20110142812A1 (STC UNM, published 2011).
Results are given in words; binding and its absence hold for the method and conditions named. Binding calls can cover weak binding; strength is not graded here.

Tests used:
human FcγRII (human) = assay: surface plasmon resonance, human FcγR
human FcγRIII (human) = assay: surface plasmon resonance, human FcγR

B1: Y175L CRP (recombinant mutant C-reactive protein in which tyrosine 175 is replaced by leucine) (ligand)
chain: QTDMSRKAFVFPKESDTSYVSLKAPLTKPLKAFTVCLHFYTELSSTRGYSIFSYATKRQDNEILIFWSKDIGYSFTVGGSEILFEVPEVTVAPVHICTSWESASGIVEFWVDGKPRVRKSLKKGYTVGAEASIILGQEQDSFGGNFEGSQSLVGDIGNVNMWDFVLSPDEINTILLGGPFSPNVLNWRALKYEVQGEVFTKPQLWP
notes: also called CRP mutant Y175L; recombinant mutant CRP (Y175L)
binding (human FcγRII (human)): binds | binding (human FcγRIII (human)): binds
